Data: the supplement of paper PMC4604168 (melanoma cell lines)
This is one part of the list. Repeats are few or missing, and single values can be far off.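 Cells were imaged in 1,536-well plates, and nuclei stained with an antibody against cleaved PARP were counted against all DNA-stained nuclei to give the apoptosis fraction. Screening doses were chosen to leave most cells alive, and resting and induced cleaved-PARP levels differ strongly between cell lines.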

How the values were obtained:
Assay in all cases: cleaved PARP positive nuclei fraction relative to DMSO control; melanoma cells; higher = more apoptosis
Conditions in all cases: library dose: low library concentration; 72 h
501Mel = system: 501Mel
A101D = system: A101D
A2058 = system: A2058
C32 = system: C32
CBRC008 = system: CBRC008 (line from a melanoma biopsy)
CBRC014 = system: CBRC014 (line from a melanoma biopsy)
CBRC016 = system: CBRC016 (line from a melanoma biopsy)
CBRC017 = system: CBRC017 (line from a melanoma biopsy)
COLO792 = system: COLO792
COLO800 = system: COLO800
COLO829 = system: COLO829
G361 = system: G361
IPC-298 = system: IPC-298
IST-MEL1 = system: IST-MEL1
LB2518-MEL = system: LB2518-MEL
LOXIMVI = system: LOXIMVI
A375 = system: A375
CBRC034 = system: CBRC034 (line from a melanoma biopsy)
MEL-HO = system: MEL-HO

SMILES	cleaved PARP positive nuclei fraction (501Mel)	cleaved PARP positive nuclei fraction (A101D)	cleaved PARP positive nuclei fraction (A2058)	cleaved PARP positive nuclei fraction (C32)	cleaved PARP positive nuclei fraction (CBRC008)	cleaved PARP positive nuclei fraction (CBRC014)	cleaved PARP positive nuclei fraction (CBRC016)	cleaved PARP positive nuclei fraction (CBRC017)	cleaved PARP positive nuclei fraction (COLO792)	cleaved PARP positive nuclei fraction (COLO800)	cleaved PARP positive nuclei fraction (COLO829)	cleaved PARP positive nuclei fraction (G361)	cleaved PARP positive nuclei fraction (IPC-298)	cleaved PARP positive nuclei fraction (IST-MEL1)	cleaved PARP positive nuclei fraction (LB2518-MEL)	cleaved PARP positive nuclei fraction (LOXIMVI)	cleaved PARP positive nuclei fraction (A375)	cleaved PARP positive nuclei fraction (CBRC034)	cleaved PARP positive nuclei fraction (MEL-HO)
CCCS(=O)(=O)Nc1ccc(F)c(C(=O)c2c[nH]c3ncc(Cl)cc23)c1F + COC(=O)c1sccc1S(=O)(=O)Nc1ccc(Nc2ccccc2)cc1OC [GSK0660] (first compound 0.08 µM, partner dose 1 µM)	60.7%	81.5%	260%	91.2%	86.9%	430%	223%	106%	52.2%	80.6%	85.1%	193%	168%	76.9%	39.6%	90.3%			
CS(=O)(=O)CCNCc1ccc(-c2ccc3ncnc(Nc4ccc(OCc5cccc(F)c5)c(Cl)c4)c3c2)o1 [lapatinib] + COc1cc(N2CCC(N3CCN(C)CC3)CC2)ccc1Nc1ncc(Cl)c(Nc2ccccc2S(=O)(=O)C(C)C)n1 [NVP-TAE684] (first compound 0.8 µM, partner dose 0.08 µM)	158%	38.2%	76.7%	40.2%	104%	87.1%	56.7%	198%	192%	72.4%	129%	76.4%	49%	113%	61.6%	50.7%			
CNC(=O)c1cc(Oc2ccc(NC(=O)Nc3ccc(Cl)c(C(F)(F)F)c3)cc2)ccn1 [sorafenib] + Nc1ccn([C@@H]2O[C@H](CO)[C@@H](O)C2(F)F)c(=O)n1 [gemcitabine] (first compound 0.4 µM, partner dose 0.0004 µM)		94.9%	154%	80.3%	41.1%	121%	140%	158%	60.1%	140%	59.9%	98%	95.3%	84.6%		152%	119%	102%	71.5%
Cn1c(=O)n(-c2ccc(C(C)(C)C#N)cc2)c2c3cc(-c4cnc5ccccc5c4)ccc3ncc21 + O=C(O)[C@@H]1[O][Sb](=[O])([O][Sb]2(=[O])[O][C@H]([C@H](O)CO)[C@H](O)[C@H](C(=O)O)[O]2)[O][C@H]([C@H](O)CO)[C@@H]1O [stibogluconate] (first compound 0.004 µM, partner dose 2 µM)		208%	31.8%	85.8%	33.3%	99.9%	101%	131%	73.3%	124%	176%	111%	288%	127%		166%	116%	39.7%	123%
O=C(O)c1ccc2c(c1)nc(Nc1cccc(Cl)c1)c1ccncc12 + C#Cc1cccc(Nc2ncnc3cc(OCCOC)c(OCCOC)cc23)c1 [erlotinib] (first compound 0.4 µM, partner dose 0.8 µM)		69.6%	278%	76.9%	159%	133%	230%	173%	143%	63%	54.2%	130%	205%	56.9%		150%	345%	129%	173%
C[C@@H](Oc1cc(-c2cnn(C3CCNCC3)c2)cnc1N)c1c(Cl)ccc(F)c1Cl [Crizotinib] + O=C(Nc1ccccc1)c1cc([N+](=O)[O-])ccc1Cl [GW9662] (first compound 0.2 µM, partner dose 2 µM)		34.1%	74.5%	68.7%	178%	93.2%	42.8%	175%	112%	77.1%	124%	28.3%	36.8%	94.8%		147%			
CS(=O)(=O)CCNCc1ccc(-c2ccc3ncnc(Nc4ccc(OCc5cccc(F)c5)c(Cl)c4)c3c2)o1 [lapatinib] + C[C@]1(c2nc3c(C(N)=O)cccc3[nH]2)CCCN1 [Veliparib] (first compound 0.8 µM, partner dose 1.4 µM)		50.1%	143%	217%	40%	100%	121%	149%	126%	165%	133%	145%	187%	60%		111%	313%	73.1%	148%
CNC(=O)c1cc(Oc2ccc(NC(=O)Nc3ccc(Cl)c(C(F)(F)F)c3)cc2)ccn1 [sorafenib] + COCC[n+]1c2c(n(Cc3cnccn3)c1C)C(=O)c1ccccc1C2=O [YM155] (first compound 0.4 µM, partner dose 0.0004 µM)		40.9%	191%	71.6%	249%	99.8%	22.4%	101%	26.3%	52.1%	141%	53.9%	97.6%	58.5%		241%	112%	89.9%	38%
Nc1ncn([C@H]2C[C@H](O)[C@@H](CO)O2)c(=O)n1 [decitabine] + O=C(O)C(=O)Nc1sc2c(c1C(=O)O)CCNC2 [TCS401] (first compound 0.1 µM, partner dose 1.66667 µM)		41.3%	210%	36.5%	57.5%	94.5%	79.2%	80.3%	86.4%	46.2%	106%	190%	294%	139%		124%			
Cc1cc(Nc2cc(N3CCN(C)CC3)nc(/C=C/c3ccccc3)n2)n[nH]1 + C=C(c1ccc(C(=O)O)cc1)c1cc2c(cc1C)C(C)(C)CCC2(C)C [Bexarotene] (first compound 0.04 µM, partner dose 2 µM)		71.8%	97%	40.2%	112%	103%	148%	120%	113%	117%	100%	136%	187%	172%		31%	74.6%	27.4%	75.1%
CC(C)C[C@H](NC(=O)[C@H](Cc1ccccc1)NC(=O)c1cnccn1)B(O)O [Bortezomib] + Clc1ccc(Nc2nnc(Cc3ccncc3)c3ccccc23)cc1 [vatalanib] (first compound 0.001 µM, partner dose 2 µM)		430%	92.5%	94.3%	1350%	261%	1060%	501%	70%	86.1%	213%	1860%	227%	145%		197%	115%	236%	115%
